# According to publication PMC10601133:
# Chains of the proteins cited; added tags and fusions are not shown. Residues count along the entry.
# UniProt O00206, residues 24-839: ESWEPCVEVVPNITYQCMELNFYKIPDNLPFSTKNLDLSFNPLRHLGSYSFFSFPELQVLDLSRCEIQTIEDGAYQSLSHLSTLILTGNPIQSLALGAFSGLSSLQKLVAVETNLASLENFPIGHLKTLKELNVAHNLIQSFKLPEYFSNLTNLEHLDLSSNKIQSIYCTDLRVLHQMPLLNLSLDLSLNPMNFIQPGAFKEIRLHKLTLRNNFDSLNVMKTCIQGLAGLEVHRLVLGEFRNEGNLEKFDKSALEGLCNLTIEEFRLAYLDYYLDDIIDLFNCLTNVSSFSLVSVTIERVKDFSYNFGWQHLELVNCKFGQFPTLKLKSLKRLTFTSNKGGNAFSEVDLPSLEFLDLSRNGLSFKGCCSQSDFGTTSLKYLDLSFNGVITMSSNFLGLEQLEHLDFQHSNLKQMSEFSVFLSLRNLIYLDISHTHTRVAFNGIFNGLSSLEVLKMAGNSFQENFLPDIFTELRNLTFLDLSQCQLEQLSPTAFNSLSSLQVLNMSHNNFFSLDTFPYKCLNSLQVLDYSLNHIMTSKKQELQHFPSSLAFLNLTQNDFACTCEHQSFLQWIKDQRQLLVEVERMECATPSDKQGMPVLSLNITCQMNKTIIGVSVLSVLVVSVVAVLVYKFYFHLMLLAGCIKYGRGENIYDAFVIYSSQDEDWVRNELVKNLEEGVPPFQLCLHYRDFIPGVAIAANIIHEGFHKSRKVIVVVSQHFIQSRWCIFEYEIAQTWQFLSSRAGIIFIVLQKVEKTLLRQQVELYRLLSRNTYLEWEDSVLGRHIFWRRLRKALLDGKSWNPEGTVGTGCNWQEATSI
# UniProt P15941, residues 24-1255: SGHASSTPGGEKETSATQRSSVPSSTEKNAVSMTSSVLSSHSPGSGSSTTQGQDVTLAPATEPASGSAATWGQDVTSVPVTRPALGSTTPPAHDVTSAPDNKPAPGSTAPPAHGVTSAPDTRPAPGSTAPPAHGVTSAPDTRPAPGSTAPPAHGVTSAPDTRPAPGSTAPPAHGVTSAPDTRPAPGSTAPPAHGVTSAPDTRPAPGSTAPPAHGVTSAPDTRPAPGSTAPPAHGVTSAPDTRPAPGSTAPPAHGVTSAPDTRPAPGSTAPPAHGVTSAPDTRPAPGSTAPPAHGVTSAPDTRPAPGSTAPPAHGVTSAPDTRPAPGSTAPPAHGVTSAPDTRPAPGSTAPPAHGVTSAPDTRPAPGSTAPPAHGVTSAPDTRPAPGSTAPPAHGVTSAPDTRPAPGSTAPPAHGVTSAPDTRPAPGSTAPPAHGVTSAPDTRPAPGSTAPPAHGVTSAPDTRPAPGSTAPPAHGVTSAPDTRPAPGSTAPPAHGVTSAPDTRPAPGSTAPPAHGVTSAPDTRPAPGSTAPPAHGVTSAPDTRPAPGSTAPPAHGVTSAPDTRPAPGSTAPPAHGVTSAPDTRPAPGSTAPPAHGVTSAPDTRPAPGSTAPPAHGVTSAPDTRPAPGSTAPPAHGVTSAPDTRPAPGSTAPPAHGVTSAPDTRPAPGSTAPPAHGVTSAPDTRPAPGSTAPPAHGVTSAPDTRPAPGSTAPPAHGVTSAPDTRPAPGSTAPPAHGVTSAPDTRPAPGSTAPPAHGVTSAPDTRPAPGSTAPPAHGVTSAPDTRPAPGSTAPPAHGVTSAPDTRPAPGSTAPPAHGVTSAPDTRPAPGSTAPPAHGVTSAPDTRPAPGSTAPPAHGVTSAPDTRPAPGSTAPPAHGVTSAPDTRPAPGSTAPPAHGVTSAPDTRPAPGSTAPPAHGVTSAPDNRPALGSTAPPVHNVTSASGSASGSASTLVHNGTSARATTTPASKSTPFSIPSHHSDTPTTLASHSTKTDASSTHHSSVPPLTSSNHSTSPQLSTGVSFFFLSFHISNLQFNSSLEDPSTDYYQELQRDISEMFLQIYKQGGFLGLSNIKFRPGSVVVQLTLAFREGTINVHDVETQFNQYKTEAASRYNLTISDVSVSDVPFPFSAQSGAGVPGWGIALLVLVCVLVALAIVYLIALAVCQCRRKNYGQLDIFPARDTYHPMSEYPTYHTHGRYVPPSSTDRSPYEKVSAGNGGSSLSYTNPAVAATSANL
# UniProt Q99836: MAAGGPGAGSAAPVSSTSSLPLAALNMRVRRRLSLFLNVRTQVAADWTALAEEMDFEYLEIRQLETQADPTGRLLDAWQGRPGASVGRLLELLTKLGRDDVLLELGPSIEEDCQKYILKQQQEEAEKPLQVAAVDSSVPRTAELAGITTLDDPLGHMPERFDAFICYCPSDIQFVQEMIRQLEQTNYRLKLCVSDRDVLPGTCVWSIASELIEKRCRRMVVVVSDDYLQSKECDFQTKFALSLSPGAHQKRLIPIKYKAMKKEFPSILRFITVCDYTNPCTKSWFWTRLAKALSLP
# These are yes or no findings as the source states them, for the method shown. Binding seen in cells or lysates may run through a third protein. Some entries that bind do so weakly or less than the wild type.
# Biological target: Toll-like receptor 4 (TLR4) (human (endogenous in BEAS-2B)) (UniProt O00206)
# Assay: co-IP; endogenous proteins in NP40 lysates of BEAS-2B cells; overnight at 4 °C with immunoprecipitating antibody against MUC1-CT, MyD88, TLR4 or rabbit IgG, protein A/G agarose beads 2 h, immunoblot; cells with or without LPS (5 µg/mL, 24 h) and MUC1-siRNA or NC-siRNA
row,Substance,binding
1,Mucin 1 (MUC1) (from UniProt P15941 24-1255),binds
2,myeloid differentiation primary response 88 (MyD88) (from UniProt Q99836 1-296),binds
